Assay results reported in article PMC5727386.
These are yes or no findings as the source states them, for the method shown. For part of these data: Tags and fused reporters may be left off the sequences shown.

Sequences of proteins named here, by UniProt entry; tags and fusion partners are left off.
UniProt P60953: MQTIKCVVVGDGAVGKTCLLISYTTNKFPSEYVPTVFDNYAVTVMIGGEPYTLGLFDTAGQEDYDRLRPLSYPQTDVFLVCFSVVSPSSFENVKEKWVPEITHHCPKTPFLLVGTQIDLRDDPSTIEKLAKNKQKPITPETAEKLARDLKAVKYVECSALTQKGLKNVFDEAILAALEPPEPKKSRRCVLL
UniProt P61586: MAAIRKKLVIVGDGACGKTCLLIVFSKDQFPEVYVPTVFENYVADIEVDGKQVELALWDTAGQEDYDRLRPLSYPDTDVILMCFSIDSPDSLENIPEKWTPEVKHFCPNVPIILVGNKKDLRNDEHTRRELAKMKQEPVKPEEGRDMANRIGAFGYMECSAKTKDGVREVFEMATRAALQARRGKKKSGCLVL

Legend:
[1] = target: T1, Bcr-Abl DH-PH tandem domain (residues 487-893), sample of the GTPase interaction studies (UniProt P11274); test: SEC; DH-PH or DH construct mixed with GTPase 1:2, dialysed overnight at 4 °C into 25 mM Tris-HCl pH 7.5, 150 mM NaCl, 2 mM DTT with 1 mM EDTA or 10 mM MgCl2; analytical Superdex75 10/300; both purified
T1 sequence: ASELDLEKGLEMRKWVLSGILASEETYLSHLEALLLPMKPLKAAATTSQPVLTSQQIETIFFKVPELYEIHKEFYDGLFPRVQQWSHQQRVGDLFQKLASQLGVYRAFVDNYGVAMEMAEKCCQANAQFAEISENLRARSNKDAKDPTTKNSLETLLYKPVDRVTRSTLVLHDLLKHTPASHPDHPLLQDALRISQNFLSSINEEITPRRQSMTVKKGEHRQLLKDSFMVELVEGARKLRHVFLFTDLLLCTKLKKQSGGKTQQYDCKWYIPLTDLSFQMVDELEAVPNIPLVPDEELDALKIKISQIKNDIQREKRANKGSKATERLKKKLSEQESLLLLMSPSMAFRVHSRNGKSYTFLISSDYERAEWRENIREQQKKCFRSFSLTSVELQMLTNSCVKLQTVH

[2] = target: T2, His-tagged Bcr-Abl DH–PH tandem domain (residues 487–893) (UniProt P11274); test: SEC; co-migration on analytical Superdex75 10/300; DH–PH or DH constructs mixed with GTPases 1:2, dialysed into EDTA- or MgCl2-containing buffer overnight at 4 °C; both purified
T2 sequence: T1 sequence

[3] = target: T2, His-tagged Bcr-Abl DH–PH tandem domain (residues 487–893); test: pull-down; Ni-NTA Sepharose; His-tagged DH–PH or DH constructs as bait, untagged GTPases as prey, 1:2 molar ratio; dialysed into 25 mM Tris-HCl pH 7.5, 150 mM NaCl, 2 mM DTT with 1 mM EDTA or 10 mM MgCl2; 2 h at 4 °C; Coomassie SDS-PAGE; both purified

Measured: binding

Cdc42 (from UniProt P60953 1-191) (enzyme)
no binding: [1] | [2] | [3]

RhoA (from UniProt P61586 1-193) (enzyme)
no binding: [1] | [2] | [3]
